The labels stand for the following.
B1: CatSper3 (protein, UniProt Q80W99 1-395)
chain: MSQHFHHNPVRVKSGSLFATASEALQARLSKIKRKDKECQAYFRKVIKSTFFQIVMITTVTTNSFLLVLGTNYDIQFEFFRTFEVSELFFVSVYVCEFLMKVYVDPITYWKDGYNILDVIILIILTIPYLLRKIKGNHSAYLHFADGIQSLRILKLISYSRGIRTLIIAVGETVYTVASVLTLLFLLMFVFAILGFCLFGVTDRGDLENWGNLASAFFTLFSLATVDGWTDLQEELDKRKFTVSRAFTILFILLASFIFLNMFVGVMIMHTEDSMKKFERDLTLERNLAIMEEKQIILKRQQEEVNRLMNTQKSGSMNFIDMVEGFKKTLRHTDPMVLDDFSTSLSFIDIYLVTLDNQDVIVSKLQELYCEIVNVLSLMLEDMPKESSSSLSGLS
B2: CatSper2 (protein, UniProt A2ARP9 1-588)
chain: MAQEQGHFQLLRADAIRSKLIDTFSLIEHLQGLSQAVPRHTLREILDPSYQQKLMSGDQEQLVRFSIKPRRMGHITHSRRLLSRLRVRCSRMPPLSLWAGWVLDSSVFSKFIISLIFLNTFVLMVEIELMESTNTALWPVKLALEVADWFILLSFIVEILLMWLASFSLFWKDAWNVFDFFVTLLSLLPELVVLLGVPAHSVWLQLLRVCRVLRSLKLFARFRQIKVILLALVRALKSMTFLLMLLLIFFYIFAVTGVYFFREYSRSTIEGLEYNMFFSDLLNSLVTVFILFTLDHWYAVLQDIWKVPESSRVFSSIYVILWLLLGSIIFRNIIVAMMVTNFQNIRSELSEEMSHLEVQYKADMFKQQIIQRRQHSESLRGTSLGKVSEDIIETSDASDDDDDDDDDDDDDDDDDDDKSDATESDNEESDSENSESENSESEKIDPEKDYAKKSYPEKSHPEKSYPEKSHPEKSYPEKSHPKKSYDEQAEAEKVKEESKEKAYPVSHSISSHGSTAADTAFLENLDWETLVHENLPGLMDMDQDDRIVWPRDSLFRYFELLEKLQYNLEERKKLQEFAVQALMSFEDK
B3: CatSper4 (protein, UniProt Q8BVN3 1-442)
chain: MSEKHKWWQQVENIDITHLGPKRKAYELLGRHEEQVLINRRDVMEKKDAWDVQEFITQMYIKQLLRHPAFQLLLAFLLLSNAITIALRTNSYLGQKHYELFSTIDDIVLTILICEVLLGWLNGFWIFWKDGWNILNFAIVFILFMGFFIKQLDMVAITYPLRVLRLVHVCMAVEPLARIIKVILQSMPDLANVMALILFFMLVFSVFGVTLFGAFVPKHFQNMGVALYTLFICITQDGWLDIYTDFQMDEREYAMEVGGAIYFAVFITLGAFIGLNLFVVVVTTNLEQMMKTGEEEGHLNIKFTETEEDEDWTDELPLVHCTEARKDTSTVPKEPLVGGPLSNLTEKTCDNFCLVLEAIQENLMEYKEIREELNMIVEEVSSIRFNQEQQNVILHKYTSKSATFLSEPPEGANKQDLITALVSREKVSDSNINMVNKHKFSH
B4: CatSper1 (protein, UniProt Q91ZR5 1-686)
chain: MDQSSRRDESYHETHPGSLDPSHQSHPHPHPHPTLHRPNQGGVYYDSPQHGMFQQPYQQHGGFHQQNELQHLREFSDSHDNAFSHHSYQQDRAGVSTLPNNISHAYGGSHPLAESQHSGGPQSGPRIDPNHHPHQDDPHRPSEPLSHPSSTGSHQGTTHQQYHERSHHLNPQQNRDHADTISYRSSTRFYRSHAPFSRQERPHLHADHHHEGHHAHSHHGEHPHHKEQRHYHGDHMHHHIHHRSPSASQLSHKSHSTLATSPSHVGSKSTASGARYTFGARSQIFGKAQSRESLRESASLSEGEDHVQKRKKAQRAHKKAHTGNIFQLLWEKISHLLLGLQQMILSLTQSLGFETFIFIVVCLNTVILVAQTFTELEIRGEWYFMVLDSIFLSIYVLEAVLKLIALGLEYFYDPWNNLDFFIMVMAVLDFVLLQINSLSYSFYNHSLFRILKVFKSMRALRAIRVLRRLSILTSLHEVAGTLSGSLPSITAILTLMFTCLFLFSVVLRALFQDSDPKRFQNIFTTLFTLFTMLTLDDWSLIYIDNRAQGAWYIIPILMIYIVIQYFIFLNLVIAVLVDNFQMALLKGLEKVKLEQAARVHEKLLDDSLTDLNKADANAQMTEEALKMQLIEGMFGNMTVKQRVLHFQFLQLVAAVEQHQQKFRSQAYVIDELVDMAFEAGDDDYGK
B5: CatSperζ (protein, UniProt Q9CQP8 1-194)
chain: MEESVKPVPKHANHRRSSVRSSLYGDVRDLWSTATMSTANVSVSDVCEDFDEEGKSVRNRIRKYSQTISIRDSLNLEPEEIQQQARRELELCHGRSLEHGEDHEESETSLASSTSESLIFSLWKPHRTYWTEQQNRLPLPLMELMETEVLDILKKALITYRSTIGRNHFMTKELQGYIEGIRKRRNKRLYFLDQ

These are yes or no findings as the source states them, for the method shown. Binding seen in cells or lysates may run through a third protein. A result given as binding can be weak or reduced; the word gives no strength.

The assay has as its target C2CD6S (C2 calcium dependent domain containing 6, short isoform) (mouse). Briefly: co-IP.
As for B1, the binding result is “binds”. With B2 the entry was “binds weakly”; with B3, “binds”.

On to B4, for which the binding entry is on record as “binds”.

For the molecule B5, the binding entry is on record as “no binding”.

Values taken from paper doi:10.1101/2021.07.06.451342.
